The campaign covered roughly 52,000 sequences. About 210 (0.4%) were called active.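 The calls were made as follows: active = gene whose silencing raises cell survival under the drug, median off-target-corrected z-score across its silencing RNAs 2 or more; inactive = the rest.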 Some of the results follow.

The nature of this experiment: Resistance to Poly (ADP-Ribose) Polymerase inhibitor: Gene Identification via Genome-wide siRNA Screen. Conditions: mouse BRCA2 R2336H ES cells, olaparib, CellTiter-Glo viability; stronger effect = higher value. In outline: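 Genome-wide siRNA screen (3 siRNAs/gene, 20 nM) in mouse ES cells carrying hypomorphic BRCA2 R2336H; olaparib 500 nM added 48 h post-transfection, CellTiter-Glo viability 72 h later. Normalized to plate-median negative control; MAD z-scores, gene median, seed-adjusted.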
In general terms: In ATP-based viability assays light output follows the ATP content of the culture.
For the sequence CGAUUACACUAGCAAGAAATT against Bche, the z-score is inactive: 0.147.

For “GCUCCUACGUGUCAGCCUUTT against C230094B15Rik”, the z-score is inactive: 0.0603.

On to GCUGGACCACUGCAAUAUUTT against Gsk3a, for which the z-score was inactive: 0.868.

Consider CCUUGACCUUAAUGUCUUCTT against Fgf23, for which the z-score is inactive: -0.292.

GGGAGAUCACCACCAUCCUTT against Bsx: the z-score was inactive: -0.0161.

For GGAGUAUGGAACAAGCCAGTT against Plxnb3, the z-score is inactive: -1.19.

As to “CCUCCUUGUGGCAUAAUGATT against 2600014C01Rik”, the z-score is inactive: -0.537.

As to GGGAUUAUAGGGCGCAUUGTT against Olfr685, the z-score was inactive: -1.78.

On to GGCGGUCUUUAUUUAGACATT against Dusp12, for which the z-score was inactive: -0.286.

For the sequence GGAACAUAACUCUUGUAUATT against Dhx35, the z-score was inactive: 0.4.

As for CCCAACUCGGUUUUUUUCUTT against Olfr1037, the z-score was inactive: 1.17.

GCUACGGAUGCUUUUCAAATT against Ube2i: the z-score is inactive: -3.06.

Regarding GGACACCUGAUUUUCUUCUTT against Slc41a3, the z-score was inactive: 0.496.

Turning to GGCAGAGAAGGAGGCUAAGTT against Tcf7, the z-score was inactive: -0.579.

As for GGAAAUGGGAAGUUUAAUCTT against Cdo1, the z-score is inactive: 0.543.

In the case of GGUGUACAGUCUGUUCCGATT against Ltbp2, the z-score is inactive: -1.09.

With “GGGAGUGUUUGAAUCUUUUTT against 2810475A17Rik”, the z-score is inactive: -0.0603.

In the case of GCUUUUGAUAUUCCACGUUTT against Pole2, the z-score was inactive: -0.0546.

For the sequence GGAGAUUUCCUGUAACUUUTT against Osbpl3, the z-score was inactive: -1.36.

As for GGAAAUGCCAUUUGAUUUGTT against Rfpl4, the z-score was inactive: -0.0205.

GGGAUAGCUCUGCUCAGCATT against Olfr821: the z-score was inactive: -1.6.

Turning to GGGACAAAGGUGUGAACUCTT against Dpysl4, the z-score was inactive: -0.733.

GGCCGUCACUACUCUGAAATT against Mgst2: the z-score is inactive: 9.7e-05.

In the case of GGAGUUAUGUUAUACCUCCTT against Dazl, the z-score is inactive: -0.0649.

With GCUCAUGUAGGAUGUAUAUTT against Olfr146, the z-score was inactive: -1.95.

GGCUAUUCGCUAUUGCCAUTT against Stk22c: the z-score was inactive: 0.288.

In the case of “GGACUUCAACAAGACCAUCTT against 5430407P10Rik”, the z-score was inactive: 1.14.

As for GCACUUGUCUUGAUUACAUTT against Fbxo4, the z-score is inactive: 0.42.

For the sequence GGUUGAUCUGCAUUUUAUGTT against Slc4a10, the z-score is inactive: -1.11.

Consider GGGAAGAAGAAAUACUGCGTT against Gzmg, for which the z-score was inactive: 0.582.

Turning to GCAGUUGUACUGCUAGAAATT against Oprl1, the z-score was inactive: 0.542.

Regarding GGUCCAUUACGUGCGCUUATT against Ctag3, the z-score is inactive: 0.117.

GGCAAAACCCAUUUAUGGUTT against AA536749: the z-score is inactive: -0.575.

For the sequence CCGUCACACAACACUGAUGTT against Ctla4, the z-score was inactive: 0.3.

On to AUGUAUUGAGUCAGGCAUCTT against Olfr627, for which the z-score was inactive: -0.431.

As to CGUGAUCGUGCGUUCCAACTT against Chrnb4, the z-score is inactive: -1.32.

Turning to CAUCCCAGAGUGUUGUCUUTT against Olfr1325, the z-score was inactive: -1.53.

For the sequence GGUCUUCGUGCUUUGUCAUTT against Slco2a1, the z-score was inactive: 1.1.

Take GGAGUUUGGUAAAAUUGACTT against Dhrs7: the z-score is inactive: -0.384.

As for GGUUUUCUGCAUAGAUUUUTT against Sgtb, the z-score is inactive: 1.38.

Regarding GGAGCUGAUUCUGAUGAAGTT against Fbxo31, the z-score was inactive: -0.87.

Regarding CCUAAGGUACCAUUUUAAATT against AI462438, the z-score is inactive: 0.653.

Regarding UCUACAGGACUAUUAGAUUTT against Wnt6, the z-score was inactive: 1.25.

“CGGAGUGUGAGCCAUUUUGTT against 2810432L12Rik”: the z-score was inactive: 0.0956.

Turning to “GGCAUUGUAGAGAUGACUCTT against 4732479N06Rik”, the z-score was inactive: 1.16.

As for CCCUAUCAACUGAUCUUUUTT against Scml2, the z-score was inactive: -0.607.

Take “GGAGAUCGAUAUUCGACUATT against 4933434E20Rik”: the z-score was inactive: -0.325.

For GCCGUCAAAAAUAUGCUGATT against Stim1, the z-score was inactive: 0.316.

Regarding CCGCGUACACCAACACUCATT against Hoxa2, the z-score is inactive: -1.06.

On to CGGUAUUUGUCUGUAUCCUTT against Npc2, for which the z-score is inactive: 0.249.

On to GGCACACAGUUUUGUACAUTT against Nfat5, for which the z-score was inactive: 0.631.

Turning to “GGAAAUUCUACAGAAGUCUTT against 1110006O17Rik”, the z-score is inactive: 0.313.

Consider GGCUCAGUCCCAUCAGCAUTT against Gdf7, for which the z-score is inactive: -2.16.

In the case of “GGAUGACAUCAUCAUUUGUTT against 1110030L07Rik”, the z-score is inactive: -0.682.

GGAAGAAAUGGAAAUGGAUTT against Nek9: the z-score is inactive: -0.497.

Consider GCCCAACCUGUCCAUACUUTT against Guca2b, for which the z-score is inactive: 0.481.

On to “GGUAUGAUGAACAGUCCAGTT against A730011L11”, for which the z-score was inactive: -1.44.

For “CAUGGACUCUAAGUAUAAUTT against GA_x5J8B7TQSKC-412-5”, the z-score is inactive: 1.25.

As to “GGCAUUCAGAGCUGAUUCATT against A930039G15Rik”, the z-score was inactive: -1.15.

On to CCCACUGUCCAACUACUCATT against Tceb3bp1, for which the z-score is inactive: -1.15.

As for GCAAUCAAAAGAUUGUCACTT against Gmeb1, the z-score was inactive: 0.964.

Regarding “GGAAGAGAAGCAAAUCCAATT against 2810022L02Rik”, the z-score is inactive: -2.02.

Regarding GCUUGUAGGUGGAUACAUGTT against Slc30a4, the z-score was inactive: 0.925.

For “GGAGAUGAUGUGCUUCAGUTT against 4831428F09”, the z-score was inactive: -0.663.

GCAGUUUUGGUGCAUGGGATT against Coq6: the z-score is inactive: 1.29.

Turning to GGUGUCAUCACAAAAAGAATT against Epha1, the z-score is inactive: 0.508.

Take “GGACAGAAAGUUGUCUUUATT against C530043G21Rik”: the z-score is inactive: -0.801.

Turning to “GGUGAGACUAUAAAGAUAATT against 9230101H05Rik”, the z-score was inactive: 1.23.

For the sequence “GGAUUCCUACAGCUUCACGTT against 1700049E17Rik”, the z-score was inactive: -0.937.

As for “GCUCAGCUGAAAAACUUGCTT against 4930564N15Rik”, the z-score was inactive: 0.224.

Turning to CCAGUACCCGUCUGAAAAGTT against Olfr215, the z-score was inactive: -1.22.

With GGAAGAUGAUGAGAUAAACTT against Herpud1, the z-score is inactive: 0.387.

In the case of GGAUAAAAGACUGAACAGUTT against Gpatc1, the z-score was inactive: 1.97.

In the case of GAGCCAGAAGAUAACCAAGTT against Dpm2, the z-score is inactive: -1.72.

With GGCCUUGAAGGAGUAUGAGTT against Atp2a3, the z-score is inactive: -0.163.

Consider CGGAUUGGCCAACAACGCATT against Slc24a3, for which the z-score is inactive: -0.0318.

With CCUUAUCAAAAGCAUGCUUTT against Kist, the z-score is inactive: 1.49.

For the sequence “GGAAAAACAUGCCAAAAAATT against 0610027B03Rik”, the z-score was inactive: 0.0985.

For GAAAAAUGUGCAAGAGACUTT against Olfr1218, the z-score was inactive: 0.93.

Consider GCUACUUUUUAGUGGUUGUTT against Olfr1298, for which the z-score was inactive: -0.365.

Regarding “GGCAGAAAAUUCUUACAAATT against 2810022L02Rik”, the z-score was inactive: 0.0333.

Turning to GGUUGAUAACAGGAAGUUUTT against Spred2, the z-score was inactive: -0.283.

Take “GCUCCUUGCUUGAUUCUACTT against D730018G16”: the z-score is inactive: -0.805.

On to GCUCUACCCUGAAGAUAUATT against Immt, for which the z-score was inactive: 0.207.

As to CCCAAAUACCUACCAUCUCTT against Slc4a9, the z-score is inactive: 2.23.

For CCACAUCUGAACAUUAGUCTT against Phxr1, the z-score is inactive: -0.00456.

For the sequence GGUUUUUGUGGAGACACUGTT against Ap3s2, the z-score was inactive: -0.262.

As to GGACAGGAAGAUGUGGCUUTT against Ly6d, the z-score was inactive: -0.595.

For GCCAAGUUUCUUUUAGAGATT against Hmgcr, the z-score was inactive: -0.838.

As to GGUUAAAGACCAUGUUUAUTT against Moxd1, the z-score is inactive: -0.796.

On to GCGGUCCAUCAUCAAACUCTT against AW060207, for which the z-score is inactive: 0.904.

As to GGAACGAUGGAUACUUGGGTT against Porcn, the z-score is inactive: 1.39.

As to GGCAGAUGUAACCAUAUCATT against Nfe2, the z-score is inactive: -0.278.

GGCAGAAGCACUGUGGACUTT against Agr2: the z-score was inactive: 0.588.

With CCUCUGCGUAGUUUCCUUGTT against Olfr345, the z-score was inactive: -0.597.

Regarding “GGCUCCUCAAAGCUAAAAATT against 1700001C19Rik”, the z-score is inactive: 1.92.

Regarding GGUCACUCAGAAUAAUGCUTT against BC034664, the z-score was inactive: -1.36.

For the sequence CCUUUCAGACCAGUUCAUUTT against Gsbs, the z-score was inactive: -0.686.

In the case of GCCUUCAAGCCAAAGAUAGTT against AI461788, the z-score was inactive: -0.699.

GGAAUCGCCAUCUGCAUCUTT against Cyyr1: the z-score was inactive: 1.4.

For GCAUUUCACCUGGAGCCUUTT against Zfp108, the z-score is inactive: -1.78.

Consider GGCAUUCUUUGGGAAGUAGTT against Slc9a2, for which the z-score is inactive: 0.41.

For “GCUUUUUCUACGCGUCUCATT against 1700084P21Rik”, the z-score is inactive: -0.886.

The record behind these values is PubChem BioAssay AID1347423 (Functional Genomics Laboratory (NCATS/FGL), 2020).
